In patent US20100150924A1 (published 2010):
Results are given in words; binding and its absence hold for the method and conditions named. Some entries that bind do so weakly or less than the wild type. Sequences can lack the tags named with a protein.

Legend:
[1] = target: T1, Necl4-dCT (myc-tagged Necl4 lacking the entire cytoplasmic domain, pMX-SSmyc-Necl4dCT) on infected 3T3 cells (mouse/rat (chimeric)); assay: Fc-fusion binding to non-permeabilized infected 3T3 cells
T1 sequence: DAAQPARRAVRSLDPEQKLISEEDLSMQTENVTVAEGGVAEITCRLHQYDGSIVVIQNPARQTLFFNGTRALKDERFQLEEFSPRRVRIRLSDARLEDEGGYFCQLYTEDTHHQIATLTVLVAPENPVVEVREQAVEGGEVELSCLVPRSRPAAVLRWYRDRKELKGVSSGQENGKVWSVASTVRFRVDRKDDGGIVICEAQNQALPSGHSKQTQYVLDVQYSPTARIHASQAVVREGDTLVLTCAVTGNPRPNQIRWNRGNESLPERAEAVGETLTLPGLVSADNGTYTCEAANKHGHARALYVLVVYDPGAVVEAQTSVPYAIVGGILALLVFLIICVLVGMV

[2] = target: T2, Necl4-FL (myc-tagged full length Necl4, pMX-SSmyc-Necl4FL) on infected 3T3 cells (mouse/rat (chimeric)); assay: as above
T2 sequence: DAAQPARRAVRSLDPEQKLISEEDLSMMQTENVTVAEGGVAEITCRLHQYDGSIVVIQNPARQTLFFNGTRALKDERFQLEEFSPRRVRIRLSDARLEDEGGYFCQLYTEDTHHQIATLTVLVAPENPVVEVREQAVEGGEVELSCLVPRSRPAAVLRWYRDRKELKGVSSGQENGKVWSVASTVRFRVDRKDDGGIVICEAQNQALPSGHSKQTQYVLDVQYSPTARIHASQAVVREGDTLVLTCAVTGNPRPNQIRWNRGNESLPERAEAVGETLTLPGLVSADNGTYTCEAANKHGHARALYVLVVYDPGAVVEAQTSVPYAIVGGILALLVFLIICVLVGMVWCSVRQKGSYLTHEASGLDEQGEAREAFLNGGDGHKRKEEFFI

[3] = target: T1, Necl4-dCT (myc-tagged Necl4 lacking the entire cytoplasmic domain, pMX-SSmyc-Necl4dCT) on infected 3T3 cells (mouse/rat (chimeric)); assay: Fc-fusion binding to infected 3T3 fibroblasts
[4] = target: T2, Necl4-FL (myc-tagged full length Necl4, pMX-SSmyc-Necl4FL) on infected 3T3 cells (mouse/rat (chimeric)); assay: Fc-fusion binding to infected 3T3 fibroblasts
[5] = target: T3, endogenous rat Necl4 (on cultured rat Schwann cells; also in rat brain membranes and sciatic nerve) (rat) (UniProt Q1WIM1); assay: Fc-fusion binding to rat Schwann cells after Necl4 siRNA or control siRNA; aggregated Necl1-Fc also co-clustered Necl4
T3 sequence (looked up): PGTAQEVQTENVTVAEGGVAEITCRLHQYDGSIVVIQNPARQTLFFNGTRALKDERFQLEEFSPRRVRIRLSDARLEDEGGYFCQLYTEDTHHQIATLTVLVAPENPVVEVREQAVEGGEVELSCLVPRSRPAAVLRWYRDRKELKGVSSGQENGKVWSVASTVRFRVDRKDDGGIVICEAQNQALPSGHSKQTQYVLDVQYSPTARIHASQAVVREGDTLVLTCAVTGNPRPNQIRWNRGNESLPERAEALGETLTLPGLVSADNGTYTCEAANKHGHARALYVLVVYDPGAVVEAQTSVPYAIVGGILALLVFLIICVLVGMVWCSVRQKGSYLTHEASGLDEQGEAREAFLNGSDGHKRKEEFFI

[6] = target: T3, endogenous rat Necl4 (on cultured rat Schwann cells; also in rat brain membranes and sciatic nerve) (rat); assay: Fc-fusion binding to rat Schwann cells after Necl4 siRNA or control siRNA
[7] = target: T3, endogenous rat Necl4 (on cultured rat Schwann cells; also in rat brain membranes and sciatic nerve) (rat); assay: clustering of bound Fc-fusion on rat Schwann cells, then immunostaining

Measured: binding

B1: Necl1-Fc (extracellular domain of Necl1 fused to the constant region of human IgG1) (Fc fusion)
chain: NLSQDGYWQEQDLELGTPAPLEEALSSTVWSNPDLLASQDSQPWTSDETVVAGGTVVLKCQVKDHEDSSLQWSNPAQQTLYFGEKRALRDNRIQLVSSTPHELSISISNVALADEGEYTCSIFTMPVRTAKSLVTVLGIPQKPIITGYKSSLREKETATLNCQSSGSKPAAQLAWRKGDQELHGDQTRIQEDPNGKTFTVSSSVSFQVTRDDDGANVVCSVNHESLKGADRSTSQRIEVLYTPTAMIRPEPAHPREGQKLLLHCEGRGNPVPQQYVWVKEGSEPPLKMTQESALIFPFLNKSDSGTYGCTATSNMGSYTAYFTLNVNDPSPVPSSSST
notes: Produced in HEK 293T cells; also called soluble Necl1; Nel1-Fc; not shown: constant region (Fc) of human IgG1
binds: [1] | [2] | [3] | [4] | [5] | [6] | [7]
